Here are results for one compound from article PMC11724075, “Small-molecule-induced ERBB4 activation to treat heart failure” (Nature Communications, 2025).

Assay [1] relates to mouse model of MI. The assay can be described thus: Mouse model of MI, histology: CSA, capillaries, interstitial fibrosis, scar size. Conditions: MI experiment, female mice, MI/EF-1. On the procedure: Twelve-week-old female and male Balb/cJ (Charles River, 000651) mice were randomized into either the ctrl or MI group. Mice in the MI group underwent surgical ligation of the LAD, while mice in the ctrl group underwent a sham procedure (n = 8 female mice, n = 10 male mice). Briefly, all mice received an injection of 0.1 mg/kg buprenorphine (Produlab Pharma) before induction of anesthesia with 8% sevoflurane (Zoetis). Anesthesia was maintained with 4.5% sevoflurane and mice were intubated and ventilated. An incision of 15 mm was made on the left side of the thorax and the thoracic cavity was opened at the third intercostal space using blunt forceps. […]
Hearts were fixed in 4% PFA, paraffin-embedded, and cut into 5-µm sections. Images were acquired with an Olympus BX43 microscope (Olympus Stream Motion Software) or a CELENA® S Digital Imaging System and analyzed with ImageJ 2.14.0 software. […] Cardiac total fibrosis was expressed as the ratio of positively stained fibrotic area (blue) to the total area and perivascular fibrosis as the ratio of fibrotic area to vascular lumen area. Scar size was determined by measuring the scar length over the total heart area. […] Quantification was performed by a person blinded to the treatment protocol.

For assay [2], the system named is mouse model of MI. Kind of assay: Mouse model of MI (LAD ligation), echocardiography. Also noted: left-ventricular end-diastolic volume / left-ventricular end-systolic volume: unit not given here. As to the method:
Twelve-week-old female and male Balb/cJ (Charles River, 000651) mice were randomized into either the ctrl or MI group. Mice in the MI group underwent surgical ligation of the LAD, while mice in the ctrl group underwent a sham procedure (n = 8 female mice, n = 10 male mice). Briefly, all mice received an injection of 0.1 mg/kg buprenorphine (Produlab Pharma) before induction of anesthesia with 8% sevoflurane (Zoetis). Anesthesia was maintained with 4.5% sevoflurane and mice were intubated and ventilated. An incision of 15 mm was made on the left side of the thorax and the thoracic cavity was opened at the third intercostal space using blunt forceps. The LAD was permanently ligated with a 8/0 polypropylene monofilament sutures (Ethicon, F1894) after which the thoracic cavity and skin were closed with 6/0 polypropylene monofilament sutures (Ethicon, F1841). and 5/0 polyamide 6 sutures (Ethilon, F2412H), respectively. Mice received another dose of 0.1 mg/kg buprenorphine 6–8 h after the initial dose. Two days after surgery, cardiac ultrasound was performed to exclude mice without successful MI (i.e. displaying hypokinesia in ≥2 out of 5 segments). Mice with successful MI were randomized into 2 groups: an MI/EF-1 group (n = 9 female mice, n = 10 male mice) and an MI/Veh group (n = 8 female mice, n = 12 male mice). Seven days after MI surgery, the mice were equipped with osmotic mini-pumps containing either EF-1 (2 mg/kg/day) or Veh, as described above. Cardiac ultrasound was performed weekly. After 4 weeks of treatment, mice were euthanized, and hearts were collected.
Echocardiography was performed using the Vevo F2-LAZRX (FUJIFILM VisualSonics) and UHF57x probe. Mice were anesthetized with 1.5% isoflurane (Alvira, BE-V512222). Parasternal long-axis B-mode images and M-mode images were obtained and analyzed using VevoLAB software (FUJIFILM VisualSonics, Version 5.7.1). For the AngII experiments, measurements were obtained through analysis of the short-axis M-mode. For the MI experiments, measurements were obtained through analysis of the parasternal long-axis B-mode, of which the area and end-volume of the left ventricular cavity in diastole and systole were determined by tracing the endocardial border. Acquisitions, measurements and analyses were performed blinded.
Supplementary Table 2. Echocardiographic parameters. […]
Echocardiographic parameters obtained through left ventricular trace analysis of the parasternal long-axis obtained in B-mode in female wild-type mice that underwent a sham or MI operation: mice with […]
the MI were treated with Veh or EF-1 (n=8 female mice in Ctrl and MI/Veh group and n=9 female mice […]
in MI/EF-1 group). (g) Echocardiographic parameters obtained through left ventricular trace analysis of the parasternal long-axis obtained in B-mode in male wild-type mice that underwent a sham or MI […]
operation: mice with the MI were treated with Veh or EF-1 (n=5 male mice in Ctrl and MI/EF-1 group […]
and n=6 male mice in MI/Veh group for T0 and T3; n=10 male mice in Ctrl and MI/EF-1 group and n=12 […]
male mice in MI/Veh group for T2 and T4). Echocardiographic parameters were measured weekly (indicated by ‘T’). All data are presented as mean (value of individual mice) ± SD, two-tailed unpaired […]
1 groups. Source data are provided as a Source Data file. AngII, angiotensin II; ANOVA, analysis of variance; Ctrl, control; DOX, doxorubicin; EF, ejection fraction; ERBB4, erythroblastic leukemia viral oncogene homolog 4; FS, fractional shortening; IVSd, interventricular septum thickness in diastole; IVSs, interventricular septum thickness in systole; LVIDd, left ventricular internal diameter in diastole; LVIDs, left ventricular internal diameter in systole; LVPWd, left ventricular posterior wall thickness in diastole; LVPWs, left ventricular posterior wall thickness in systole; MI, myocardial infarction; NA, non-activating pharmacophore-containing compound; SD, standard variation; Veh, vehicle.

[3] abbreviates: male mice, MI/EF-1, 2 weeks after MI.
The mark [4] stands for this setting: male mice, MI/EF-1, 3 weeks after MI.
[5] abbreviates: male mice, MI/EF-1, 4 weeks after MI.

Each structure is given as a SMILES string. The source holds more than one record for some entries. They are shown here; other results are not. There may be further records. Values that stand side by side differ for a reason that is not stated; dose, time, organism, isomer or construct need not be as stated for each record.

`O=C(NC1CC1)C(Sc1nc2ccccc2c(=O)n1C1CCCC1)c1ccccc1` (stereo not drawn) [EF-1]: the cardiomyocyte cross-sectional area in assay [1] is 408.291, 410.876, 364.329, 394.198, 468.719, 389.529, 486.597, 400.61 µm². Besides, the left-ventricular end-systolic volume in assay [2] (female mice, MI/EF-1, 0 weeks after MI) is 27.1502, 25.5965, 41.583, 26.8532, 31.6618, 26.4045, 33.6199; in assay [2] (setting [3]), 120.606 and 144.154; in assay [2] (setting [4]), 128.254, 144.109, 66.4446, 116.876; in assay [2] (setting [5]), 130.023, 142.752, 120.978. For the same compound, the left-ventricular end-diastolic volume in assay [2] (female mice, MI/EF-1, 3 weeks after MI) is recorded as 104.279, 57.1046, 67.7258, 110.958, 104.249, 85.2445, 83.2871; in assay [2] (setting [3]), 152.907, 157.952, 103.809, 120.971, 84.3743, 82.7782, 163.93, 127.013; in assay [2] (setting [5]), 152.102, 174.774, 98.4532, 129.892. Besides, the ejection fraction in assay [2] (setting [4]) was 48.9747, 12.2218, 13.8127, 22.8853, 12.1516.
